“And” between values parts separate entries of the source, which are not always exact repeats. Equal values may be shown once. Where a name gives a salt, the structure may show the parent alone. ± gives the standard deviation of the averaged measurements. This is one part of the list. Repeats are few or missing, and single values can be far off.
Tested on: RAW 264.7
Test: cell viability (MTT) relative to vehicle control; higher = more viable cells
Conditions: stimulus: HMGB1 5 ug/ml, 18 h
[1] = compound concentration: 1 ug/ml

Structure (SMILES)	cell viability [1] [%]	cell viability (compound concentration: 3 uM)
COc1cccc(-c2oc3cc(OC)ccc3c(=O)c2O)c1 [3',7-Dimethoxy-3-hydroxyflavone]	117	–
CC(=O)N[C@H](Cc1ccc2ccccc2c1)C(=O)O [(R)-N-Acetyl-2-naphthylalanine]	104	–
COC(=O)C1=C(C)NC(C)=C(C(=O)OCCN(C)Cc2ccccc2)C1c1cccc([N+](=O)[O-])c1 (stereo not given) [Nicardipine]	–	113%
COC(=O)C1=C(C)NC(C)=C(C(=O)OCCN(C)Cc2ccccc2)C1c1cccc([N+](=O)[O-])c1 (stereo not given)	–	117%
COC(=O)C1=C(C)NC(C)=C(C(=O)OCCN(C)Cc2ccccc2)C1c1cccc([N+](=O)[O-])c1 (stereo not given) [Nicardipine hydrochloride]	–	107 ± 20%
O=c1cc(-c2ccc(O)cc2)oc2cc(O)ccc12 [4',7-Dihydroxyflavone]	99.3	–
COC(=O)C1=C(C)NC(C)=C(C(=O)OCC(C)C)C1c1ccccc1[N+](=O)[O-] (stereo not given)	–	104 ± 7.9%
COC(=O)C1=C(C)NC(C)=C(C(=O)OCC(C)C)C1c1ccccc1[N+](=O)[O-] (stereo not given) [Nisoldipine]	–	102 ± 12%
COc1ccc(-c2cc(=O)c3c(OC)cccc3o2)cc1 [4',5-Dimethoxyflavone]	107	–
COc1c2ccoc2cc2oc(=O)ccc12	–	106%
COc1c2ccoc2cc2oc(=O)ccc12 [Bergapten; 5-Methoxypsoralen, 99%]	92.3	–
CCCCCCCCCCCC1=C(O)C(=O)C=C(O)C1=O [Embelin]	84.6	–
NC(=O)NC1NC(=O)NC1=O (stereo not given) [Allantoin]	–	109%
NC(=O)NC1NC(=O)NC1=O (stereo not given)	–	100%
CN(C)CCOC(c1ccc(Cl)cc1)c1ccccn1 (stereo not given)	–	111%
CN(C)CCOC(c1ccc(Cl)cc1)c1ccccn1 (stereo not given) [Carbinoxamine maleate salt]	–	90.6%
O=C1CCc2ccc(OCCCCN3CCN(c4cccc(Cl)c4Cl)CC3)cc2N1 [Aripiprazole]	–	105 ± 9.8%
O=C1CCc2ccc(OCCCCN3CCN(c4cccc(Cl)c4Cl)CC3)cc2N1	–	89.5 ± 6.2%
Cc1ccccc1C(OCCN(C)C)c1ccccc1 (stereo not given)	–	105%
Cc1ccccc1C(OCCN(C)C)c1ccccc1 (stereo not given) [Orphenadrine hydrochloride]	–	118 ± 20%
NCCNS(=O)(=O)c1cccc2c(Cl)cccc12 [A3 hydrochloride]	–	99.9%
CC(C)NCC(O)c1ccc(O)c(O)c1 (single isomer, unassigned; (-)) [(-)-Isoproterenol hydrochloride]	–	91.2 ± 3.7%
O=C1C(O)=C([C@H]2CC[C@H](c3ccc(Cl)cc3)CC2)C(=O)c2ccccc21 [Atovaquone]	–	93.5 ± 24%
O=C1C(O)=C([C@H]2CC[C@H](c3ccc(Cl)cc3)CC2)C(=O)c2ccccc21	–	104 ± 28%
Cc1cc2c(C(C)C)c(O)c(O)c(/C=N/Nc3nc4ccccc4[nH]c3=O)c2c(O)c1-c1c(C)cc2c(C(C)C)c(O)c(O)c(/C=N/Nc3nc4ccccc4[nH]c3=O)c2c1O	111	–

Some of the entries above, set out differently:
Structure (SMILES) | cell viability [1] [%] | cell viability (compound concentration: 3 uM)
O=c1cc(-c2ccc(O)cc2)oc2cc(O)ccc12 [4',7-Dihydroxyflavone] | 99.3 | –
COC(=O)C1=C(C)NC(C)=C(C(=O)OCC(C)C)C1c1ccccc1[N+](=O)[O-] (stereo not given) | – | 104 ± 7.9%

Carrying on:

Structure (SMILES)	cell viability [1] [%]	cell viability (compound concentration: 3 uM)
CN1CCC(=C2c3ccccc3CCc3sccc32)CC1 [Pizotyline]	–	93.2%
CN1CCC(=C2c3ccccc3CCc3sccc32)CC1	–	98%
CN1CCC(=C2c3ccccc3CCc3sccc32)CC1 [Pizotifen malate]	–	80.3%
N=C(N)NCCCCN [Agmatine sulfate]	–	103%
CN1CCOC(c2ccccc2)c2ccccc2C1 (stereo not given)	–	117%
CN1CCOC(c2ccccc2)c2ccccc2C1 (stereo not given) [Nefopam hydrochloride]	–	105%
COc1ccc2c(c1)CC[C@@H]1[C@@H]2CC[C@]2(C)[C@@H](NCCCCCCN3C(=O)CCC3=O)CC[C@@H]12	–	96.1%
CCCCNc1ccc(C(=O)OCCN(C)C)cc1 [Tetracaine hydrochloride]	–	125%
CN(C)[C@@H]1C(O)=C(C(=O)NCNCCCC[C@H](N)C(=O)O)C(=O)[C@@]2(O)C(O)=C3C(=O)c4c(O)cccc4[C@@](C)(O)[C@H]3C[C@@H]12 [Lymecycline]	–	104%
COc1ccc(NC(=O)c2ccc(-c3ccc(-c4noc(C)n4)cc3C)cc2)cc1N1CCN(C)CC1	–	97.5%
CCN(CC)CCOc1ccc(C(=C(Cl)c2ccccc2)c2ccccc2)cc1	–	92.9%
CCN(CC)CCOc1ccc(C(=C(Cl)c2ccccc2)c2ccccc2)cc1 [Clomiphene]	–	107%
CCN(CC)CCOc1ccc(C(=C(Cl)c2ccccc2)c2ccccc2)cc1 [Clomiphene citrate (Z,E)]	–	111%
CC(COc1ccccc1Cc1ccccc1)N1CCCCC1 (stereo not given)	–	89.3%
CC(O)(P(=O)(O)O)P(=O)(O)O	–	106%
CC(O)(P(=O)(O)O)P(=O)(O)O [Etidronate]	–	94.6%
CC(O)(P(=O)(O)O)P(=O)(O)O [Etidronic acid, disodium salt]	–	98.8%
CCC1NC(=O)c2cc(S(N)(=O)=O)c(Cl)cc2N1 (stereo not given) [Quinethazone]	–	104%
COc1ccccc1N1CCN(CCCCNC(=O)c2ccc3ccccc3c2)CC1	–	80.1% and 93.7%
O=C1[C@H](CC[C@H](O)c2ccc(F)cc2)[C@@H](c2ccc(O)cc2)N1c1ccc(F)cc1	–	105 ± 8.2%
O=S(=O)(O)c1cc(I)c(O)c2ncccc12	–	105%
CC(C)NC[C@H](O)COc1cccc2[nH]ccc12 [S(-)-Pindolol]	–	108%
O=C(O)COCCN1CCN([C@H](c2ccccc2)c2ccc(Cl)cc2)CC1	–	95.4%
Cc1cnc(C(=O)NCCc2ccc(S(=O)(=O)NC(=O)NC3CCCCC3)cc2)cn1 [Glipizide]	–	105 ± 9.8%
Cc1cnc(C(=O)NCCc2ccc(S(=O)(=O)NC(=O)NC3CCCCC3)cc2)cn1	–	112%

From the supplement of paper PMC3682954
